This test has as its target GST-tagged hpol κ^19-526 (human DNA polymerase kappa catalytic core) (human) (UniProt Q9UBT6). Nature of the test: pull-down; GST-hpol κ^19-526 on glutathione Sepharose beads (~1200 pmol), WRN construct 1 μM (~500 pmol) in 500 μl; 25 mM HEPES pH 7.5, 0.1 M NaCl, 10% glycerol, 5 mM β-ME; 16 h at 4°C; Coomassie-stained SDS-PAGE; specific binding = fraction bound to GST-hpol κ beads divided by fraction bound to GST-coated beads; both purified.

Amino acid sequences for entries named in this document (tags omitted). Residues count along the entry.
UniProt Q9UBT6, residues 19-526: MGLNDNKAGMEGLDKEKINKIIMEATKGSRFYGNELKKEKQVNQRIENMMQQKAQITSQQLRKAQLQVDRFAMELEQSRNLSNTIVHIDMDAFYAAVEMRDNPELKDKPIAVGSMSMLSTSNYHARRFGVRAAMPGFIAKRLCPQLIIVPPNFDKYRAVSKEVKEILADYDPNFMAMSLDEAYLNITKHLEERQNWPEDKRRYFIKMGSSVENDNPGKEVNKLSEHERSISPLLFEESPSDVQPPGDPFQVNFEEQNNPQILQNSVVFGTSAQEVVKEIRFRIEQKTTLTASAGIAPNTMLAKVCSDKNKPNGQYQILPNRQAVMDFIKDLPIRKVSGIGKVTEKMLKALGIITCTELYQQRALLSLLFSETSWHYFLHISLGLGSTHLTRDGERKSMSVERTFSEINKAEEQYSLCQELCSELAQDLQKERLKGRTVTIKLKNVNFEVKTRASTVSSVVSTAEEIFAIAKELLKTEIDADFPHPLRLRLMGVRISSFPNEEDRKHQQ
UniProt Q14191, residues 500-949: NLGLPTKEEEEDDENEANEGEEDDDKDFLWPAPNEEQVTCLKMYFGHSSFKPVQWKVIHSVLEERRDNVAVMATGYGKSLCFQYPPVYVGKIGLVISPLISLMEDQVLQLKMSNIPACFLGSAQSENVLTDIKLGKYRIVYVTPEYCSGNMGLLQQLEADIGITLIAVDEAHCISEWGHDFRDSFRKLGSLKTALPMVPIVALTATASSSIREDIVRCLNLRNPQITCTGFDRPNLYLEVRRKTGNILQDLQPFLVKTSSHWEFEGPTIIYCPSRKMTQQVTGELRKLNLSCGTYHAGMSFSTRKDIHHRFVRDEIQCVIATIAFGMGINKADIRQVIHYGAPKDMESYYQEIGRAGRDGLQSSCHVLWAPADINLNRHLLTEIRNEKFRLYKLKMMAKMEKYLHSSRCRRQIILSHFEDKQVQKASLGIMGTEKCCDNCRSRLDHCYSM

No constants are given. Whether binding was seen depends on the method and setting.

For the substance “WRN^500-949 ATPase domain (from UniProt Q14191 500-949) (domain or fragment)”, the binding result is on record as “no binding (tested: 1 μM)”.

The record behind these values is publication PMC4231769.
